Molecules are shown by their SMILES. Some of the results follow. The main result of the screen is listed elsewhere. These columns were measured beside it and carry no call. Compounds called inactive in the main read-out are mostly missing here. The note in brackets gives the kind of curve behind each potency; many fits are weak.

The assay in a line: qHTS Assay for Lipid Storage Modulators in Drosophila S3 Cells.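 On cell number change: cells counted by Cell Tracker Red CMTPX staining in the red channel.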 As to conditions: BODIPY lipid droplet fluorescence, 18-24 h; for cell number change: measured here: cell count max response, cells fed with added oleic acid. In a few lines: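 Drosophila S3 cells loaded with oleic acid (400 uM, as added) and compounds at several concentrations; lipid droplets imaged by 488-nm laser-scanning cytometry, 500–530 nm intensity and object ratio to cell channel. Percent activity normalized to 20 uM Triacsin C.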
(In general: qHTS replaces the single test concentration by a dilution series.)

The mark [1] stands for this setting: measured here: lipid fluorescence (Fed channel) AC50, cells fed with added oleic acid.
[2] abbreviates: measured here: cell number channel AC50, cells fed with added oleic acid.

In the case of `CCCCn1c(N)c(N(CC(C)C)C(=O)C(C)SCc2nc3sc(C)c(C)c3c(=O)[nH]2)c(=O)[nH]c1=O` (centres undefined), the cell number change was -8.87%. For the same compound, under setting [1], the AC50 is 29.1 µM [falling, single point].

On to `Cc1occc1-c1nnc(SCC(=O)Nc2c(F)cccc2F)n1C`, for which the cell number change is 48.5%. Under setting [2], the half-maximal activity concentration (AC50) was 16.4 µM [rising, single point]. In addition, under setting [1], the AC50 is 23.1 µM [rising, partial curve].

Regarding `O=C(CC(c1ccccc1)c1ccccc1O)NCCN1CCOCC1` (centres undefined), the cell number change is -1.89%. Moreover, under setting [1], the AC50 was 16.4 µM [falling, partial curve].

On to `COCCN(C(=O)c1csnn1)C(C(=O)NC(C)(C)C)c1cccc(OC)c1` (centres undefined), for which the cell number change is -143%. Besides, under setting [2], the concentration at half-maximal activity (AC50) was 29.1 µM [falling, single point].

`CCc1cc(=O)oc2c3c(cc(OCC(=O)NCc4ccccn4)c12)OC(C)(C)CC3`: the cell number change was 0.291%. The concentration at half-maximal activity (AC50) under setting [1] is 18.4 µM [falling, single point].

`Cc1nc2ccc(NS(=O)(=O)c3ccc4c(c3)OCCO4)cc2s1`: the cell number change was -40.3%. For the same compound, the AC50 under setting [2] was 18.4 µM [falling, partial curve, poor fit]. Moreover, the concentration at half-maximal activity (AC50) under setting [1] was 29.1 µM [falling, single point].

Consider `CCn1c(CSc2ncccn2)nnc1SCC(=O)N1CCc2ccccc21`, for which the cell number change was 0.0277%. Moreover, the AC50 under setting [1] was 1.84 µM [rising, single point].

For the compound `Cc1ccc2c(c1)cc1c(=O)n(CC(=O)N3CCCC3)nc(C)n12`, the cell number change is -2.31%. Also, the AC50 under setting [1] is 0.116 µM [rising, partial curve, poor fit].

As to `CCc1ccc2c(c1)C1(NN=C(c3cccc4ccccc34)S1)C(=O)N2` (centres undefined), the cell number change is -53.5%. Further, the AC50 under setting [2] is 29.1 µM [falling, single point]. Further, the half-maximal activity concentration (AC50) under setting [1] was 29.1 µM [falling, single point].

As to `CC(C)(C#CC(O)(c1ccccc1)c1ccccc1)N1CCCCC1`, the cell number change is -23.4%. Further, under setting [1], the half-maximal activity concentration (AC50) was 0.058 µM [falling, full curve, poor fit].

For the compound `Cn1c(CCC(=O)OCC(=O)NCc2ccccc2Cl)nc(=O)c2ccccc21`, the cell number change worked out at 19.7%. In addition, the AC50 under setting [1] was 4.11 µM [rising, full curve].

Consider `O=C(OCC#CCSc1nnc(-c2ccncc2)o1)c1sc2ccccc2c1Cl`, for which the cell number change is 46.1%. In addition, under setting [2], the AC50 was 29.1 µM [rising, single point].

With `Cc1nc2cc(N)ccc2n1-c1ccccc1`, the AC50 under setting [2] was 0.184 µM [rising, full curve].

As for `CCOc1ccccc1N(CC(=O)Nc1ccccc1C(=O)NCc1ccco1)S(C)(=O)=O`, the cell number change was -5.73%. The AC50 under setting [1] is 3.26 µM [rising, partial curve].

Consider `CCOc1ccc(N=Nc2cc(C(C)C)ccc2O)cc1`, for which the cell number change is -70%. Further, the half-maximal activity concentration (AC50) under setting [2] was 25.9 µM [falling, single point]. Besides, the AC50 under setting [1] was 23.1 µM [falling, partial curve, poor fit].

With `CC(C)Oc1ccccc1-c1cc(C(=O)N/N=C/c2cccnc2)c2ccccc2n1`, the cell number change is -26.9%. Moreover, the half-maximal activity concentration (AC50) under setting [2] is 0.651 µM [falling, full curve, poor fit].

For `Cc1ccc(S(=O)(=O)Nc2nc3ccccc3nc2NCc2ccco2)cc1C`, the cell number change is -30.3%. Moreover, the AC50 under setting [2] is 0.731 µM [falling, partial curve]. Moreover, the AC50 under setting [1] was 0.13 µM [falling, full curve, poor fit].

Turning to `CCC(=O)c1ccc(OCC(=O)Nc2cccc(S(=O)(=O)N3CCCCCC3)c2)cc1`, the cell number change was determined as 53%. Besides, the AC50 under setting [2] is 6.51 µM [rising, partial curve, poor fit].

For the compound `Nc1nnnn1N=C1CCCCC1`, the cell number change was 17.3%. Also, the half-maximal activity concentration (AC50) under setting [2] was 0.00411 µM [rising, full curve, poor fit].

With `Cc1ccc(S(=O)(=O)c2c(N)n(CCN3CCOCC3)c3nc4ccccc4nc23)cc1C`, the cell number change is -2.93%.

Regarding `COc1cccc(OC)c1C(=O)Nc1cccc(-c2ccc(N3CCOCC3)nn2)c1`, the cell number change was -56.6%. Further, under setting [2], the AC50 was 23.1 µM [falling, partial curve].

`O=C1COc2ccc(N3C(=O)C=CC3=O)cc2N1`: the cell number change is -60.5%. Under setting [2], the AC50 was 6.51 µM [falling, single point]. Also, the AC50 under setting [1] is 6.51 µM [falling, partial curve, poor fit].

As to `CC(=O)c1cn(CC(=O)Nc2ccc(C)cc2C)c2ccccc12`, the cell number change is -33.5%. In addition, under setting [2], the AC50 was 6.51 µM [falling, full curve, poor fit]. For the same compound, the AC50 under setting [1] is 9.2 µM [falling, partial curve].

Turning to `COc1ccc(Oc2c(-c3ccc(O)cc3O)n[nH]c2C)cc1`, the cell number change was 61.2%. Further, under setting [2], the AC50 was 5.8 µM [rising, partial curve]. For the same compound, the AC50 under setting [1] was 1.84 µM [rising, single point].

Turning to `O=C(NCCNCc1ccc(F)cc1)c1ccco1`, the cell number change is -0.827%. For the same compound, the AC50 under setting [1] was 0.731 µM [falling, full curve].

As for `CC(=O)OCC(=O)c1c[nH]c2ccccc12`, the cell number change was 0.397%. Moreover, under setting [1], the AC50 was 1.03 µM [falling, partial curve, poor fit].

Take `Cc1nsc(N)c1C(=O)O`: the cell number change was -27.8%. For the same compound, the AC50 under setting [1] is 6.51 µM [falling, full curve].

As to `CC(=O)c1c(C)oc2ccc(N(C(C)=O)S(=O)(=O)c3ccc(Cl)c([N+](=O)[O-])c3)cc12`, the cell number change is -39.6%. The AC50 under setting [2] is 29.1 µM [falling, single point]. The AC50 under setting [1] is 5.17 µM [falling, full curve].

On to `O=C(C[n+]1cc(-c2ccc(Cl)c(Cl)c2)n2c1CCC2)OCc1ccccc1`, for which the AC50 runs as follows: under setting [2], 0.259 µM [rising, full curve]; under setting [1], 20.6 µM [rising, partial curve].

`COc1ccccc1Nc1nc(C)cc(C)c1C(N)=O`: the cell number change came out at 5.98%. Further, the AC50 under setting [1] was 2.31 µM [rising, single point].

Consider `COc1cc(CNCCc2ccc(S(N)(=O)=O)cc2)ccc1OCC(=O)NC1CCCCC1`, for which the cell number change turned out to be 138%. Besides, under setting [2], the AC50 was 29.1 µM [rising, single point]. For the same compound, the AC50 under setting [1] is 0.58 µM [rising, single point].

For the compound `O=C(CSc1n[nH]c(-c2ccncc2)n1)Nc1ccccc1C(F)(F)F`, the cell number change amounted to 18.4%.

With `CCOC(=O)c1ccccc1NC(=O)C1=COCCO1`, the cell number change was -22.4%. Further, the AC50 under setting [1] was 0.731 µM [rising, single point].

Regarding `O=C(CCCCCN1C(=O)[C@@H]2Cc3ccccc3CN2C1=O)N[C@@H](Cc1ccc(O)cc1)C(=O)O`, the cell number change came out at 0.872%.

With `COCCCNC(=O)/C(C#N)=C/c1ccc(OCC(=O)O)c(OC)c1`, the cell number change was -25.5%. Moreover, under setting [2], the half-maximal activity concentration (AC50) is 6.51 µM [falling, single point]. Further, the AC50 under setting [1] was 3.66 µM [falling, single point].

For the compound `COc1ccc(/C(C)=N\Nc2nc(-c3ccccc3)cc(=O)[nH]2)cc1`, the cell number change stood at 18.4%.

As for `CCSc1ncc(/C=N/Nc2ccc(F)cc2)n1C`, the cell number change is 2.9%. Also, the AC50 under setting [2] is 6.51 µM [rising, single point]. The AC50 under setting [1] was 6.51 µM [rising, partial curve, poor fit].

For `Cc1cc(NS(=O)(=O)N(C)C)ccc1C(C)C`, the cell number change is -3.14%. Further, under setting [1], the half-maximal activity concentration (AC50) is 2.59 µM [falling, partial curve].

Regarding `Cc1ccc(N(CC(=O)NC2CCCCC2C)S(=O)(=O)c2c(C)nn(C)c2C)cc1` (centres undefined), the AC50 under setting [1] is 5.17 µM [falling, partial curve].

On to `CCN1C(=O)c2cccc3c(S(=O)(=O)NC(Cc4c[nH]c5ccccc45)C(=O)O)ccc1c23` (centres undefined), for which the cell number change was -34%. Moreover, the half-maximal activity concentration (AC50) under setting [2] was 0.206 µM [falling, full curve, poor fit]. Also, under setting [1], the AC50 was 1.84 µM [falling, full curve].

With `Cc1cccc(S(=O)(=O)N2CCCc3ccccc32)c1`, the cell number change was -4.23%. Besides, the AC50 under setting [2] is 2.06 µM [falling, partial curve]. For the same compound, the AC50 under setting [1] was 2.59 µM [falling, partial curve].

On to `Cc1sc2ncnc(OCC(=O)Nc3ccc4c(c3)OCCO4)c2c1C`, for which the AC50 was 6.51 µM [rising, single point] under setting [2] and 3.66 µM [rising, single point] under setting [1].

As to `O=C(COc1ccccc1)N1CCNC1=O`, the AC50 under setting [1] is 13 µM [falling, partial curve].

For `CCN(CC)CCN1C(=O)C(=O)/C(=C(/O)c2cnn(-c3ccccc3)c2C)C1c1cccnc1` (centres undefined), the cell number change was 3.84%. The AC50 under setting [2] is 0.411 µM [falling, partial curve, poor fit].

For the compound `Oc1cccc2ccc(/C=C/c3cccs3)nc12`, the cell number change is -8.54%. The AC50 under setting [1] is 1.84 µM [rising, partial curve, poor fit].

In the case of `O=S(=O)(c1ccc(F)cc1)N1CCN(C(=S)NCC2CCCO2)CC1` (centres undefined), the cell number change was -0.961%.

For `CCCCC(=O)N1CCN(c2nc3ccc(Cl)cc3s2)CC1`, the half-maximal activity concentration (AC50) under setting [1] was 6.51 µM [rising, partial curve, poor fit].

In the case of `O=C(COc1cccc(F)c1)Nc1ccc2[nH]c(=O)[nH]c2c1`, the cell number change was -4.14%. Also, the concentration at half-maximal activity (AC50) under setting [2] was 3.26 µM [rising, single point].

Turning to `COc1ccc(S(=O)(=O)N(CCN2CCOCC2)Cc2cc(OC)ccc2OC)cc1`, the cell number change was -4.69%.

With `O=C(C1=C[C@@H](C2CCCCC2)C[C@@H](OCc2ccc(CO)cc2)O1)N1CCN(Cc2ccc3c(c2)OCO3)CC1`, the cell number change is -10.8%.

Consider `Cc1ccc(Nc2cc(C(=O)NCCCN3CCOCC3)c3ccccc3n2)c(C)c1`, for which the AC50 was 3.66 µM [falling, single point] under setting [2] and 4.11 µM [falling, single point] under setting [1].

In the case of `CCOC(=O)CNC1CC(=O)N(c2cccc(Cl)c2)C1=O` (centres undefined), the cell number change is -34.9%. The AC50 under setting [2] was 0.0731 µM [falling, full curve, poor fit]. Moreover, the AC50 under setting [1] is 1.64 µM [falling, partial curve].

`COc1ccc(CN2CCCC(C(=O)Nc3cccc(-n4cccn4)c3)C2)cc1` (centres undefined): the cell number change amounted to 29.2%. Also, under setting [1], the AC50 was 29.1 µM [rising, single point].

Consider `O=C(c1cc(COc2ccc(F)cc2Cl)on1)N1CCCC(c2ccccc2)C1` (centres undefined), for which the cell number change turned out to be 15.8%. The AC50 under setting [2] is 6.51 µM [rising, single point]. Under setting [1], the AC50 was 0.116 µM [rising, full curve, poor fit].

Take `CCCn1c(C)cc(/C=C(\C#N)C(=O)OCC(=O)N(C)c2c(N)n(Cc3ccccc3)c(=O)[nH]c2=O)c1C`: the cell number change came to 2.01%.

One may read the AC50 as the midpoint of the concentration-response curve, whichever way the signal moves.

The values are drawn from PubChem BioAssay AID2685 (National Center for Advancing Translational Sciences (NCATS), 2010).
